{"source": "PubChem BioAssay AID1259327 (Drosophila RNAi Screening Center, 2017)", "test": "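Data from controls in screens of zinc and manganese toxicity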", "cell system": "Drosophila S2R+ cells", "reagent": "long dsRNA against Drosophila genes", "duration": "5 days (water added on day 4, read one day later)", "conditions": "water added as vehicle, no metal, one day before read-out", "detection": "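Luciferase ATP signal per well, normalised to plate mean, duplicate average converted to z-score across plates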", "direction": "ATP z-score: higher = more total ATP than typical wells; ATP luminescence: higher = more total ATP", "rule for the call": "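Called active when the ATP z-score exceeds 1.5 or falls below -1.5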", "calls": "active = hit: ATP up or down; inactive = no clear ATP change", "note": "The deposit covers about 3,100 reagents; shown is a part drawn at random. Of all reagents, 378 (12%) are marked active. 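Hits include both directions; z-score sign shows ATP rise or fall; raw luminescence values are not plate-normalised.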 A plus sign joins genes that one reagent is predicted to hit. Not stated in the record: the amount of reagent."}
{"target gene": "CG1632 (GeneID 31763)", "dsRNA": "DRSC17558", "ATP z-score, duplicate mean": -0.188, "ATP luminescence, replicate 1 (RLU)": 5.96e5, "ATP luminescence, replicate 2 (RLU)": 6.09e5, "Call": "inactive"}
{"target gene": "CG1632 (GeneID 31763)", "dsRNA": "DRSC18110", "ATP z-score, duplicate mean": 1.4, "ATP luminescence, replicate 1 (RLU)": 7.41e5, "ATP luminescence, replicate 2 (RLU)": 7.85e5, "Call": "inactive"}
{"target gene": "CG15923 (GeneID 42443)", "dsRNA": "DRSC15129", "ATP z-score, duplicate mean": -0.349, "ATP luminescence, replicate 1 (RLU)": 7.08e5, "ATP luminescence, replicate 2 (RLU)": 6.32e5, "Call": "inactive"}
{"target gene": "stan (GeneID 36125)", "dsRNA": "DRSC07697", "ATP z-score, duplicate mean": -1.05, "ATP luminescence, replicate 1 (RLU)": 5.70e5, "ATP luminescence, replicate 2 (RLU)": 4.79e5, "Call": "inactive"}
{"target gene": "stan (GeneID 36125)", "dsRNA": "DRSC39642", "ATP z-score, duplicate mean": -0.132, "ATP luminescence, replicate 1 (RLU)": 4.60e5, "ATP luminescence, replicate 2 (RLU)": 4.52e5, "Call": "inactive"}
{"target gene": "CG31262 (GeneID 318649)", "dsRNA": "DRSC13216", "ATP z-score, duplicate mean": -1.65, "ATP luminescence, replicate 1 (RLU)": 1.98e5, "ATP luminescence, replicate 2 (RLU)": 6.52e5, "Call": "active"}
{"target gene": "CG31262 (GeneID 318649)", "dsRNA": "DRSC39797", "ATP z-score, duplicate mean": -1.23, "ATP luminescence, replicate 1 (RLU)": 4.03e5, "ATP luminescence, replicate 2 (RLU)": 3.82e5, "Call": "inactive"}
{"target gene": "CG10337 (GeneID 35247)", "dsRNA": "DRSC02038", "ATP z-score, duplicate mean": 0.195, "ATP luminescence, replicate 1 (RLU)": 7.47e5, "ATP luminescence, replicate 2 (RLU)": 7.46e5, "Call": "inactive"}
{"target gene": "CG10337 (GeneID 35247)", "dsRNA": "DRSC39603", "ATP z-score, duplicate mean": 1.1, "ATP luminescence, replicate 1 (RLU)": 4.94e5, "ATP luminescence, replicate 2 (RLU)": 5.87e5, "Call": "inactive"}
{"target gene": "Cad89D (GeneID 42006)", "dsRNA": "DRSC15022", "ATP z-score, duplicate mean": 0.552, "ATP luminescence, replicate 1 (RLU)": 3.53e5, "ATP luminescence, replicate 2 (RLU)": 7.49e5, "Call": "inactive"}
{"target gene": "Cad89D (GeneID 42006)", "dsRNA": "DRSC39775", "ATP z-score, duplicate mean": 0.0422, "ATP luminescence, replicate 1 (RLU)": 5.19e5, "ATP luminescence, replicate 2 (RLU)": 4.42e5, "Call": "inactive"}
{"target gene": "l(1)1Bb + ebo", "dsRNA": "DRSC28174", "ATP z-score, duplicate mean": 0.967, "ATP luminescence, replicate 1 (RLU)": 7.52e5, "ATP luminescence, replicate 2 (RLU)": 9.68e5, "Call": "inactive"}
{"target gene": "l(1)1Bb + ebo", "dsRNA": "DRSC39798", "ATP z-score, duplicate mean": 0.79, "ATP luminescence, replicate 1 (RLU)": 5.37e5, "ATP luminescence, replicate 2 (RLU)": 5.31e5, "Call": "inactive"}
{"target gene": "sog (GeneID 32498)", "dsRNA": "DRSC20379", "ATP z-score, duplicate mean": 0.633, "ATP luminescence, replicate 1 (RLU)": 8.70e5, "ATP luminescence, replicate 2 (RLU)": 9.09e5, "Call": "inactive"}
{"target gene": "Nhe2 (GeneID 35376)", "dsRNA": "DRSC03172", "ATP z-score, duplicate mean": -0.84, "ATP luminescence, replicate 1 (RLU)": 3.03e5, "ATP luminescence, replicate 2 (RLU)": 5.64e5, "Call": "inactive"}
{"target gene": "Nhe2 (GeneID 35376)", "dsRNA": "DRSC03377", "ATP z-score, duplicate mean": 0.747, "ATP luminescence, replicate 1 (RLU)": 8.19e5, "ATP luminescence, replicate 2 (RLU)": 7.92e5, "Call": "inactive"}
{"target gene": "rasp (GeneID 44098)", "dsRNA": "DRSC08191", "ATP z-score, duplicate mean": -0.124, "ATP luminescence, replicate 1 (RLU)": 8.80e5, "ATP luminescence, replicate 2 (RLU)": 8.79e5, "Call": "inactive"}
{"target gene": "rasp (GeneID 44098)", "dsRNA": "DRSC39831", "ATP z-score, duplicate mean": -0.71, "ATP luminescence, replicate 1 (RLU)": 4.69e5, "ATP luminescence, replicate 2 (RLU)": 3.86e5, "Call": "inactive"}
{"target gene": "PGAP3 (GeneID 35570)", "dsRNA": "DRSC04989", "ATP z-score, duplicate mean": 0.174, "ATP luminescence, replicate 1 (RLU)": 7.17e5, "ATP luminescence, replicate 2 (RLU)": 7.83e5, "Call": "inactive"}
{"target gene": "PGAP3 (GeneID 35570)", "dsRNA": "DRSC39550", "ATP z-score, duplicate mean": -0.57, "ATP luminescence, replicate 1 (RLU)": 3.97e5, "ATP luminescence, replicate 2 (RLU)": 4.57e5, "Call": "inactive"}
{"target gene": "Cad86C (GeneID 41302)", "dsRNA": "DRSC15611", "ATP z-score, duplicate mean": 0.284, "ATP luminescence, replicate 1 (RLU)": 2.96e5, "ATP luminescence, replicate 2 (RLU)": 8.32e5, "Call": "inactive"}
{"target gene": "Cad86C (GeneID 41302)", "dsRNA": "DRSC27602", "ATP z-score, duplicate mean": 1.01, "ATP luminescence, replicate 1 (RLU)": 1.10e6, "ATP luminescence, replicate 2 (RLU)": 1.04e6, "Call": "inactive"}
{"target gene": "Cad86C (GeneID 41302)", "dsRNA": "DRSC28094", "ATP z-score, duplicate mean": 0.699, "ATP luminescence, replicate 1 (RLU)": 9.56e5, "ATP luminescence, replicate 2 (RLU)": 1.00e6, "Call": "inactive"}
{"target gene": "Fur2 (GeneID 32604)", "dsRNA": "DRSC19817", "ATP z-score, duplicate mean": -0.735, "ATP luminescence, replicate 1 (RLU)": 6.56e5, "ATP luminescence, replicate 2 (RLU)": 7.11e5, "Call": "inactive"}
{"target gene": "CG33673 (GeneID 3772423)", "dsRNA": "DRSC00084", "ATP z-score, duplicate mean": 0.683, "ATP luminescence, replicate 1 (RLU)": 8.69e5, "ATP luminescence, replicate 2 (RLU)": 7.61e5, "Call": "inactive"}
{"target gene": "CG33673 (GeneID 3772423)", "dsRNA": "DRSC38938", "ATP z-score, duplicate mean": 1.9, "ATP luminescence, replicate 1 (RLU)": 6.41e5, "ATP luminescence, replicate 2 (RLU)": 8.41e5, "Call": "active"}
{"target gene": "Or59a (GeneID 37711)", "dsRNA": "DRSC04631", "ATP z-score, duplicate mean": -0.309, "ATP luminescence, replicate 1 (RLU)": 6.54e5, "ATP luminescence, replicate 2 (RLU)": 7.32e5, "Call": "inactive"}
{"target gene": "Or59a (GeneID 37711)", "dsRNA": "DRSC39825", "ATP z-score, duplicate mean": 1.44, "ATP luminescence, replicate 1 (RLU)": 5.56e5, "ATP luminescence, replicate 2 (RLU)": 6.05e5, "Call": "inactive"}
{"target gene": "Inx7 (GeneID 33027)", "dsRNA": "DRSC18784", "ATP z-score, duplicate mean": -0.468, "ATP luminescence, replicate 1 (RLU)": 7.99e5, "ATP luminescence, replicate 2 (RLU)": 7.25e5, "Call": "inactive"}
{"target gene": "Inx7 (GeneID 33027)", "dsRNA": "DRSC24113", "ATP z-score, duplicate mean": 2.27, "ATP luminescence, replicate 1 (RLU)": 1.15e6, "ATP luminescence, replicate 2 (RLU)": 1.11e6, "Call": "active"}

Ordered by “ATP luminescence, replicate 1 (RLU)” (high to low): some entries from above.
{"target gene": "CG10337 (GeneID 35247)", "dsRNA": "DRSC02038", "ATP z-score, duplicate mean": 0.195, "ATP luminescence, replicate 1 (RLU)": 7.47e5, "ATP luminescence, replicate 2 (RLU)": 7.46e5, "Call": "inactive"}
{"target gene": "CG10337 (GeneID 35247)", "dsRNA": "DRSC39603", "ATP z-score, duplicate mean": 1.1, "ATP luminescence, replicate 1 (RLU)": 4.94e5, "ATP luminescence, replicate 2 (RLU)": 5.87e5, "Call": "inactive"}
{"target gene": "CG31262 (GeneID 318649)", "dsRNA": "DRSC39797", "ATP z-score, duplicate mean": -1.23, "ATP luminescence, replicate 1 (RLU)": 4.03e5, "ATP luminescence, replicate 2 (RLU)": 3.82e5, "Call": "inactive"}
{"target gene": "CG31262 (GeneID 318649)", "dsRNA": "DRSC13216", "ATP z-score, duplicate mean": -1.65, "ATP luminescence, replicate 1 (RLU)": 1.98e5, "ATP luminescence, replicate 2 (RLU)": 6.52e5, "Call": "active"}
